The values below come from PMC5429807.

By UniProt entry, the sequences of proteins in these tests, tags left out. Where a name states a change or a piece, a line headed by the entry shows the natural chain unless it says otherwise.
UniProt C1DLQ2: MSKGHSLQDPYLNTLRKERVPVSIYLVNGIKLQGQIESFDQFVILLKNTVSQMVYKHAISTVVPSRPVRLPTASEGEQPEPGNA

Common to all, as to test: EMSA
(In general: In EMSA bound probe runs differently from free probe, usually more slowly.)

Series [1] concerns the target Hfq-His (UniProt C1DLQ2). As to conditions: RNA EMSA as in a cited protocol (ref. 13), excess tRNA, non-denaturing polyacrylamide gel, recombinant protein.
Series [2] deals with Hfq-His + Crc. As to conditions: excess tRNA, RNA EMSA as in a cited protocol (ref. 13), non-denaturing polyacrylamide gel, recombinant protein, protein details: C-terminal His6,none (intein removed).
Series [3] concerns the target Crc (Azotobacter vinelandii AEIV) (UniProt C1DI50). The following applies: excess tRNA, Crc alone, even at high concentrations, RNA EMSA as in a cited protocol (ref. 13), non-denaturing polyacrylamide gel, recombinant protein, label: 32P (radioactive), probe letters rebuilt from the primers and the genome, part of a longer molecule.

For at least one entry, the source does not settle the construct or the ends of the probe. For some assays here: Negatives hold for the conditions tested. For some assays here: Weaker means in comparison with the reference protein, sequence or condition of that experiment. For some assays here: At least one verdict rests on a figure or table, not on a statement of the authors.

For the sequence “AAGCAACAAUCACAACAAGAGGAAAU [gluP A-rich RNA oligo]”, in series [1] (Hfq alone, weak complex dissociating during electrophoresis, protein details: C-terminal His6, label: 5'-32P), the binding result was “binds more weakly”.

Take “UUCGUACAACAACAAUAACAAGACGUACCACCCACAAUAAGAACGACGACACGACUCCAGCCUAACAAGAACAACGACGCGGAGACGGAGCCAACCGAUUUUUUUGGAGUAGGCGCAUGCCCGCCGGGCGAAGCCCGCAGCCAGACCGAGAACAACAAAACUGCCACGAAGCAGCACCCGAACUGGUAGGUCCGCAGGACCCUAGGCAAUAUCUGCAACCAAAGAAAUCCGUUUGCUAUUGGCUCCCCAUUGGGGGCCAUCCCGGAGCCAAGGAGCCAACCGGGACGGGCGCACAACAAGAACAACAAGCCCGGAGCAGAACAAGAACAACGCACGCACCUCGAUUUGAAAGGGAGCUUCGGCUCCCUUUCUGCGUUCGA [CrcZ sRNA]”: the binding result is on record as “binds” in series [2] (Hfq 0.2 or 0.05 uM plus Crc, tripartite complex suggested, BSA has no such effect, label: 32P (radioactive), probe letters rebuilt from the primers and the genome, part of a longer molecule); “no binding” in series [3]; “binds” in series [1] (stable complex at Hfq as low as 0.02 uM, protein details: C-terminal His6, label: 32P (radioactive), probe letters rebuilt from the primers and the genome, part of a longer molecule).

“CAUCCAGAACAACAAACCGGCCACUU [eda-1 A-rich RNA oligo]”: the binding result in series [2] (Hfq plus Crc, label: 5'-32P) was “binds”.
